# Results deposited as PubChem BioAssay AID602196 (INSERM, 2012)
# Assay: 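Genes whose knock-down alters cisplatin killing of lung cancer cells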
# System: human A549 lung cancer cells
# Reagents: siRNA pair against human genes
# Time to read-out: 48 h transfection before cisplatin; time from cisplatin to read-out not stated
# Challenge: cisplatin at a dose killing half of control-siRNA cells; exact dose and duration not given
# Measured: 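Shift in cisplatin death relative to control siRNA, from -50 (all cells die) to +50 (no cells die); siRNAs harmful on their own scored 0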
# Reading the numbers: two-siRNA summed score (-2 to +2): higher = both siRNAs protect from cisplatin killing; -2 means both sensitise; mean protection from cisplatin (shift in death) and protection from cisplatin (shift in death), siRNA C and protection from cisplatin (shift in death), siRNA D: higher = protection from cisplatin killing
# Call rule: 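Each siRNA scores 0 if harmful alone by LDH or WST-1, otherwise +1 if it reduces and -1 if it increases cisplatin killing; a gene is active when both siRNAs agree (sum +2 or -2)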
# Meaning of the calls: active = both siRNAs shift cisplatin killing the same way; inactive = no consistent shift, or siRNA harmful alone
# In all, the deposit lists about 23,000 reagents; shown is an unselected part. 455 of all reagents (2%) were called active. 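Active includes both protection and sensitisation; some change values fall well beyond the stated -50 to +50 range.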 A number with no mark means an inactive call. The record does not give: the amount of reagent.
gene symbol,two-siRNA summed score (-2 to +2),mean protection from cisplatin (shift in death) (%),"protection from cisplatin (shift in death), siRNA C (%)","protection from cisplatin (shift in death), siRNA D (%)"
XCL2,0,5.4,7,3.8
BBS1,0,6.3,8.6,4.1
SLC17A6,0,13.7,13.7,13.8
PHOSPHO2,0,6.6,6.9,6.4
FKBP10,0,-9.8,-26.5,6.9
RBM18,0,6.6,9.3,3.8
OR10G2,0,-10,-4.4,-15.6
PTCHD1,1,12.4,11.4,13.4
AIM2,0,7.6,17,-1.9
ACOT13,0,17.6,19.9,15.4
LOC441105,0,10.2,8.6,11.8
CFTR,-1,-14.1,-20.2,-7.9
LOC401855,0,8.4,5.1,11.6
LOC440828,-1,8.6,-9.9,27.1
TECTB,0,2.5,-1.3,6.3
VTA1,0,-5.4,-11.6,0.7
LINC00473,0,1.8,5,-1.5
LOC441069,0,14.2,10.2,18.3
LOC388002,0,5.4,0.7,10.2
PEMT,0,3.3,6.4,0.2
LENG9,0,-4.9,-8.6,-1.1
GNAI3,0,-5.3,-16.5,5.9

Not a retest: an excerpt of the list.
gene symbol,two-siRNA summed score (-2 to +2),mean protection from cisplatin (shift in death) (%),"protection from cisplatin (shift in death), siRNA C (%)","protection from cisplatin (shift in death), siRNA D (%)"
PTCHD1,1,12.4,11.4,13.4
AIM2,0,7.6,17,-1.9
ACOT13,0,17.6,19.9,15.4
LOC441105,0,10.2,8.6,11.8
CFTR,-1,-14.1,-20.2,-7.9
LOC401855,0,8.4,5.1,11.6
LOC440828,-1,8.6,-9.9,27.1

The results go on.
gene symbol,two-siRNA summed score (-2 to +2),mean protection from cisplatin (shift in death) (%),"protection from cisplatin (shift in death), siRNA C (%)","protection from cisplatin (shift in death), siRNA D (%)"
UBE2R2,1,17.6,9,26.2
CCL11,0,5.2,13.8,-3.4
BTLA,0,-2.1,-12.5,8.2
CTIF,0,10.1,-7.4,27.6
TMEM171,-1,-6.9,7.3,-21.2
MAT2A,-1,-9.5,-32.2,13.2
LOC388727,0,12.9,15.6,10.1
LOC339685,0,-14.7,-13.2,-16.2
SBNO1,0,9.4,7.7,11.2
TSPYL1,0,15.1,21.5,8.8
CYTL1,0,-1.3,13.9,-16.5
SLC22A5,0,6.2,11.9,0.5
ICAM1,0,-3.6,2.7,-9.9
LOC441687,2 (active),13.6,14.1,13
IGHV3OR16-17,2 (active),24.8,22.3,27.3
LOC389105,-1,-6.1,-21.5,9.4
STPG3,0,8.9,-3.2,20.9
RDH16,-1,-12.3,-14.2,-10.3
TNFRSF6B,-1,-10.1,-5.2,-15.1
LOC441374,1,9.8,13,6.5
LOC401054,1,11.7,23.1,0.3
KRT34,0,12.8,14.3,11.3
CAPN7,-1,-35.9,-16.5,-55.3
SDAD1,0,-5.7,1.1,-12.5
ULK3,1,3,13.8,-7.9
ZCWPW2,1,10.2,16,4.5
VAPA,0,5,-1.4,11.5
RMND5B,0,5.1,4.7,5.4
TAB1,2 (active),21.5,20.4,22.7
RPS18,0,-0.8,-3.7,2.1
DVL1,0,-0.6,3.2,-4.4
TMEM179B,0,-0.2,1.7,-2.1
LOC440007,0,32.7,7.2,58.1
LYL1,-1,-16.9,-27.7,-6
PEX12,-1,10.2,32.7,-12.2
